From paper PMC10307791
No constants are given. Whether binding was seen depends on the method and setting. Some binding calls cover weakened binding; strength is not graded here.

Molecular target: native FtsZ (Myxococcus xanthus) (UniProt Q1D0T7)
Test: sedimentation assay (high-speed centrifugation); 10 µM protein, 50 mM Hepes/NaOH pH 7.2, 50 mM KCl, 10 mM MgCl2, 10 mM CaCl2, 1 mM β-mercaptoethanol, 5 mM GTP; 160,000 x g, 1 h, 25 °C; both purified

- binding: binds
B1: native FtsZ (protein, UniProt Q1D0T7 1-405)
chain: MDQFDQNKQAAKIRVVGAGGAGCNAVNTMILSKLDRVDFIAANTDVQALAASKAPTRLQLGQTLTKGLGAGANPEMGREAALESRDQIAAVLEGADMVFVTAGMGGGTGTGAAPIIADIAKSLGCLTVGVVTKPFLFEGNKRRKQAEQGIVELKAAVDTLITIPNQRLLSLSNEPMPLLETFKRADEVLLNAVQGISDLIQYHGYINVDFADVKTIMSDKGIALMGTGNSTGDKRALIAMQQAIASPLLEDVTIDGATGLLINITGGRDMTLQEVNEALTLVHDAADSEAEIIFGSLIDENISDEVKITIIATGFVHRDAPKVRTVAPVVQVPLSRPAPSVLANAREEVASLVPTKGSGSRPLTVESAKSVSARTAVVKDAPLPLDEDQFDIPTFLRRQGQTELP
